Taken from: PubChem BioAssay AID652272 (Drosophila RNAi Screening Center, 2013)
In all, the deposit lists about 21,000 reagents; shown is an unselected part of those that have a named target and a result. Over the whole deposit, 503 (2.4%) were called active. 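Raw plate light values, not normalised; calls rest on replicate z-scores that were not deposited; hits include reporter decreases as well as increases.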 A number with no mark means an inactive call. Reagents against one gene are numbered here. Names joined by + are all predicted targets of the reagent. Not stated in the record: the amount of reagent, the time to read-out.

- Test: 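Finding fly genes that regulate Hedgehog signal transduction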 (primary screen)
- System: Drosophila clone 8 (Cl8) cells
- Reagents: long dsRNA against Drosophila genes
- Measurement: 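Plate reader light from a firefly reporter under a ptc promoter fragment that responds to Hedgehog, with Renilla light as transfection reference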
- Reading the numbers: firefly Hh reporter signal: higher = more ptc reporter light; Renilla reference signal: higher = more Renilla control light
- Rule for the call: 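Hit when the z-score averaged over two replicates is under -2 or over +3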
- Calls: active = hit: reporter lowered or raised; inactive = not a hit

The opening 7 records as a preview:
target	reagent no.	firefly Hh reporter signal, replicate 1	firefly Hh reporter signal, replicate 2	firefly Hh reporter signal, replicate 3	Renilla reference signal, replicate 1	Renilla reference signal, replicate 2
Spn28F	1	90413	40973		2512	4709
Acsl	1	73991	35649		3773	1748
TwdlC	1	84672	86123		3162	2509
AdamTS-A	1	1.21e5	58189		5252	1863
AdamTS-A	2	1.31e5	1.97e5		4120	5683
ZnT33D	1	1.19e5	45218		3092	3777
rumpel	1	70290	1.72e5		2240	6071

The list itself, from the first entry:
target	reagent no.	firefly Hh reporter signal, replicate 1	firefly Hh reporter signal, replicate 2	firefly Hh reporter signal, replicate 3	Renilla reference signal, replicate 1	Renilla reference signal, replicate 2
Spn28F	1	90413	40973		2512	4709
Acsl	1	73991	35649		3773	1748
TwdlC	1	84672	86123		3162	2509
AdamTS-A	1	1.21e5	58189		5252	1863
AdamTS-A	2	1.31e5	1.97e5		4120	5683
ZnT33D	1	1.19e5	45218		3092	3777
rumpel	1	70290	1.72e5		2240	6071
CG12716	1	90916	3.16e5		2185	12473
CG11294	1	57686	1.30e5		2004	5714
CG32536 + CG32537	1	1.73e5	5.65e5	3.33e5	6345	3571
CG6420	1	79200	1.18e5		2116	3888
cv-d	1	80072	88669		3004	3264
cv-d	2	75959	60630		2326	1746
cv-d	3	95320	98226		2275	3240
CG14069	1	1.09e5	67424		2964	5186
Jon25Biii	1	1.36e5	58821		3340	6259
CG11912	1	73760	75526		3362	3392
CG11570	1	41265	48256	45906	4677	3446
Gr28a	1	1.18e5	61072		2950	5680
CG32112	1	56897	65265	88250	7313	6780
sstn	1	76992			4923	2872
disp	1	92980	93723		3945	3178
hook	1	50370	66352		2528	3121
CG9643	1	1.10e5	55210		1379	4535
Taf5	1	80320	38720		3392	1552
CG14676	1	1.01e5	1.40e5		4075	4147
CG8565	1	81931	2.17e5		2780	9242
DCTN3-p24	1	1.17e5	56742		5005	2640
CG14744	1	87042	48091		2021	3512
CD98hc	1	54301	1.12e5		1866	23668
CG42568 + DnaJ-60	1	80027	37132		2161	4432
CG42568 + DnaJ-60	2	1.30e5	78781		5063	3432
CG11975	1	1.16e5	80372		5197	3445
dpr14	1	96809	97355		2209	2432
Miga	1	75686	1.71e5		2710	6760
DppIII	1	89681	1.37e5		2256	4429
Ras64B	1	78519	32885		2832	2592
Cpsf73	1	5.56e5	1.27e5		33846	5160
Pdk	1	61622	47568		2487	1837
Det	1	90010	96021		1968	8020
Efhc1.1	1	66944	2.11e5		2187	7723
CG12877	1	1.05e5	1.15e5		2816	3786
ringer	1	83380 (active)			3483	3329
CG34163	1	4.57e5	2.48e5		26024	10103
CG18269	1	75030	56486		1926	5888
CG12123	1	1.05e5	82309		2547	1906
RpL38	1	32194 (active)	14577		2514	2480
CG34200	1	1.91e5	2.84e5		4317	12249
CG6753	1	1.23e5	1.60e5		4544	4489
SecS	1	76695	1.29e5		3283	3313
eIF1A	1	4.10e5	65649		27588	2534
Pax	1	1.36e5	2.45e5		4051	12274
Pax	2	1.57e5	1.13e5		5367	4358
Pax	3	1.40e5	81141		3820	8011
5-HT7	1	80453	86918		1779	2226
CG4360	1	4.89e5	96556		27382	2317
Dnaaf6	1	99409			3671	2672
